In the assay the target is Cx36-EGFP (UniProt O54851). In words: proximity labelling.

Chains of the proteins cited; added tags and fusions are not shown.
UniProt O54851: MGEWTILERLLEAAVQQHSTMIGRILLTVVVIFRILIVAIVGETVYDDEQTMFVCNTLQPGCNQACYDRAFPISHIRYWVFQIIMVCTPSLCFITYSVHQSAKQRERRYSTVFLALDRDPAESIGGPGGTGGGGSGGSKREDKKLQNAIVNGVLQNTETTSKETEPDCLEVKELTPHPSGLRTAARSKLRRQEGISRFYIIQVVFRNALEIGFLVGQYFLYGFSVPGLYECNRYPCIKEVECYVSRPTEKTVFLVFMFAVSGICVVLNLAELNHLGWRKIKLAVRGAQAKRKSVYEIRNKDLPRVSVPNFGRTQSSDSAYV

No constants are given. Whether binding was seen depends on the method and setting. Binding seen in cells or lysates may run through a third protein. These calls come from enrichment with a bait or labelling near it, and not all partners need be listed.

Regarding Cx36-SNAP (from UniProt O54851 1-321), the binding entry is “binds”.

The values above are taken from article doi:10.1101/2022.07.15.500247.
